Test [1] deals with T1, Gremlin-1 (human (endogenous in A549)) (UniProt O60565).
T1 sequence: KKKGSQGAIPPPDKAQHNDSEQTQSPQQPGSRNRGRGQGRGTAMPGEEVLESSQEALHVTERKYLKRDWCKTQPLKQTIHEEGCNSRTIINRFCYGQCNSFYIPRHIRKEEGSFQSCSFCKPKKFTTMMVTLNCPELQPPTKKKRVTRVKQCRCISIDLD
The test is described as follows: co-IP; A549 cell lysates; anti-USP11 or anti-GREM1 antibody (or control IgG) on magnetic beads, incubated with lysate overnight at 4 °C; precipitates analysed by Western blot. Background: In western blotting, separated proteins are transferred to a membrane and probed.

Amino acid sequences for entries named in this document (tags omitted).
UniProt P51784: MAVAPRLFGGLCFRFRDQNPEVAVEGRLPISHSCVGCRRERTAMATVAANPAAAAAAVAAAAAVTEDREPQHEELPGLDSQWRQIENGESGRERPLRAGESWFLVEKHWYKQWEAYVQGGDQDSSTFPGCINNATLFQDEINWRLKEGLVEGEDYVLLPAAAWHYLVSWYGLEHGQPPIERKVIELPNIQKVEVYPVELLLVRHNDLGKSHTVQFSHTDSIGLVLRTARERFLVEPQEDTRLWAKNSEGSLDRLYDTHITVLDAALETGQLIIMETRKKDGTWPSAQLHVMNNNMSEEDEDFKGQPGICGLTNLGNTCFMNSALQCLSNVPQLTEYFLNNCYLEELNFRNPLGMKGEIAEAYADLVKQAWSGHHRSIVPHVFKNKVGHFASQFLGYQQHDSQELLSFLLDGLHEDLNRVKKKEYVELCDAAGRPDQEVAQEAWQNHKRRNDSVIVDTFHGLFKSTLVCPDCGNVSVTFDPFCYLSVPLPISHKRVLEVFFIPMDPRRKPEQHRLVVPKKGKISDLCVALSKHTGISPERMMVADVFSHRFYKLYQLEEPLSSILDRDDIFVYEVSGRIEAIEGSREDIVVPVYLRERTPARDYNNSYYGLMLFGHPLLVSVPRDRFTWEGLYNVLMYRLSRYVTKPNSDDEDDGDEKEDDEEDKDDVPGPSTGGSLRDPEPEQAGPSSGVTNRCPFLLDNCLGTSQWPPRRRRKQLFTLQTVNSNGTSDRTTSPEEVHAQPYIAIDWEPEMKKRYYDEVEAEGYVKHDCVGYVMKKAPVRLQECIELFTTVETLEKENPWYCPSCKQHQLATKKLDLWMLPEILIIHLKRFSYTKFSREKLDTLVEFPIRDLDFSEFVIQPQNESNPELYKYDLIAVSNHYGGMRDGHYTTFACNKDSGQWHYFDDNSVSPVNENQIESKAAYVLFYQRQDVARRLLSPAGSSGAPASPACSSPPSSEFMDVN

Test [2] concerns the target ubiquitin-specific protease 11 (human (endogenous in A549)) (UniProt P51784). The test is described as above.

Results are given in words; binding and its absence hold for the method and conditions named. In cells and extracts the contact can be indirect. Some binding calls cover weakened binding; strength is not graded here.

With “ubiquitin-specific protease 11 (from UniProt P51784 1-963) (enzyme)”, the binding entry in test [1] is recorded as “binds”.

B1: Gremlin-1 (protein, UniProt O60565 25-184)
chain: KKKGSQGAIPPPDKAQHNDSEQTQSPQQPGSRNRGRGQGRGTAMPGEEVLESSQEALHVTERKYLKRDWCKTQPLKQTIHEEGCNSRTIINRFCYGQCNSFYIPRHIRKEEGSFQSCSFCKPKKFTTMMVTLNCPELQPPTKKKRVTRVKQCRCISIDLD
Take B1: the binding result in test [2] is given as “binds”.

The values are drawn from PMC10974697.
